Test results as given in US11654178B2, “Cyclic prosaposin peptides and uses thereof” (CHILDREN'S MEDICAL CENTER CORPORATION, priority 2014, dated 2023).
At least one peptide structure holds a part that was inferred or is arguable (an end, a ring closure or a residue). Where a SMILES comes first, the peptide text is derived from it. [ ]: non-standard residue; d: D form.

Tests used:
Tsp-1 = Tsp-1 expression in lungs of mice pretreated with PC3M-LN4 conditioned media (western blot); format: in vivo, C57BL6/J mice
Procedure: The activity of the 1,3-d-amino acid Psap peptide and the native Psap peptide were tested in vivo. The peptides were systematically administered to C57BL6/J mice that were pretreated with conditioned media (CM) from PC3M-LN4 (LN4) cells, which previously mimicked the systemic properties of metastatic tumors by repressing the expression of Tsp-1 in the lungs of mice (3, 4). After 3 days of treatment with LN4 CM alone or in combination with two different doses (10 mg/kg/day and 30 mg/kg/day) of d- and 1-amino acid peptides (independently) protein pools were prepared from the harvested lungs of each treatment group. The level of Tsp-1 expression in the lungs of these mice were assessed by western blot analysis. It was observed that the 1,3-d-amino acid peptide stimulated Tsp-1 3-fold greater than the native peptide (FIG. 12B). […] Based on the observation that the in vitro activity of the two peptides was virtually identical, it was concluded that the difference in activity in vivo was due to a difference in stability.

DF14 cells = experiment: PDX model of established ovarian cancer metastases, d-amino acid Psap peptide; format: in vivo
Source text: 75 percent of ovarian cancer patients already have disseminated disease at the time of first diagnosis (E. Lengyel, Ovarian cancer development and metastasis. Am J Pathol 177, 1053-1064 (2010)). For these patients inhibiting metastasis would have limited therapeutic benefit. Rather, these patients require a therapeutic agent that can regress or, at the very least, stabilize existing metastases. Whether the d-amino acid Psap peptide could have therapeutic efficacy in a model of established metastatic dissemination was investigated. 1×10^6 DF14 cells, expressing firefly luciferase, were injected into the peritoneal cavity of SCID mice to mimic the route of dissemination of human ovarian cancer. The growth of metastatic colonies in the mice in real time were monitored via relative luciferase intensity and when the average intensity of the luciferase signal was 0.5-1×10^8 RLU, treatment with vehicle (saline), the d-amino acid peptide (40 mg/kg QD), or cisplatin (4 mg/kg QOD) was started. […] However, during those 20 days half of the cisplatin treated mice died from adverse side effects of the drug as defined by total body weight, which decreased by 40% (FIG. 13C). Moreover, after 20 days the tumors in the group of cisplatin treated mice that survived began to grow, despite continued treatment with cisplatin, and all the remaining mice died within 10 days (FIG. 13A).
The livers and spleens of the Psap peptide treated mice were examined histologically (H&E) to determine whether there were any micrometastases.
Metastases in the peritoneal cavity recruited Cd11b^+/Gr1^+ bone marrow derived cells, analogous to lung metastases was investigated (3). […] The fluid was FACS sorted from these mice to assess the population of Cd11^+/Gr1^+ bone marrow derived cells. […] Based on these findings it was concluded that the Psap peptide was able to dramatically regress established metastases to the point where no detectable lesions could be found.

`CC(C)C[C@@H](NC(=O)[C@H](Cc1c[nH]c2ccccc12)NC(=O)[C@H](N)CC(=O)O)C(=O)N1CCC[C@H]1C(=O)O` [linear dWIP] (H-[dD]W[dL]P-OH; N-terminus and C-terminus assumed) was tested, and the “Tsp-1 stimulation in lungs relative to native peptide” value (Tsp-1; 3 days of treatment with LN4 CM, FIG. 12B) was 3 fold, the “Tsp-1 stimulation in lungs” value (Tsp-1; dose of 10 mg/kg, 3 days, LN4 CM) was “to the same degree as a dose of 30 mg/kg of the native peptide” and the “Tsp-1 stimulation in lungs relative to same dose of native peptide” value (Tsp-1; dose of 30 mg/kg, 3 days, LN4 CM) was “approximately 3 fold”. For the same compound, the “luciferase signal by day 48” value (DF14 cells; 40 mg/kg QD, in any of the mice) was “no detectable luciferase signal”, the “metastatic lesions (micrometastases) in livers and spleens by H&E” value (DF14 cells; 83 days of treatment in total) was “not identifiable” and the “metastatic lesions on gross examination” value (DF14 cells; 83 days of treatment in total) was “no metastatic lesions”.
